For at least one compound, name, drawing or mass did not settle the structure.
System: human umbilical vein enothelial cell (HUVEC)
Test: Angiogenesis: HUVEC tube formation on Matrigel
Assay type: cell-based
Experimental: After thawing Matrigel on ice, 40 μL of the Matrigel was added into each wells of a 96 well plate and placed for 30 min at 37° C. to solidify the Matrigel. Then, 180 μL of human umbilical vein enothelial cell (HUVEC) suspension (2×10^4 cells) was added made into each well of the solidified Matrigel and incubated for 18 hr in a 5% CO2 atmosphere at 37° C. The degree of tube formation was observed by microscope.

CCCCCCCCCCCCCCCc1cc(OC2OC(C(=O)OC)C(O)C(O)C2O)cc(O)c1C(=O)Oc1cc(C)c(C(=O)O)c(O)c1 (single isomer, unassigned) [CRM646-B]
Inhibitory activity against the angiogenesis (comparison in words): higher inhibitory activity against the angiogenesis than CRM646-A
